Test results published in PubChem BioAssay AID662 (National Center for Advancing Translational Sciences (NCATS), 2007).
The list shows a part of the results. Shown are side measurements of this screen, not its main read-out; they come without a call. Compounds called inactive in the main read-out are mostly missing here. The note in brackets gives the kind of curve behind each potency; many fits are weak.

Experiment: Cell signaling CRE-BLA (Fsk stim)
Settings: CHO CRE-bla reporter (cAMP response element driving beta-lactamase), forskolin EC10, beta-lactamase ratio; measured here: 460 nm blue channel
In short: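 CRE-bla CHO cells stimulated with EC10 NKH 477 (water-soluble forskolin) and compound titrations, 3 h at 37C; beta-lactamase read with CCF4 after 2 h at room temperature. Activity from 460/530 nm emission ratio, AC50 values for positive or negative modulation.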
In the case of Cc1ccc(C)c(Cc2c(C)nc3c(C(=O)N4CCOCC4)cnn3c2C)c1, the AC50 is reported as 7.94 µM [rising, partial curve].
With CCOC(=O)c1oc2nc3c(cc2c1N)COC(C)(C)C3 the AC50 was 25.1 µM [rising, single point].
For O=C(Nc1cccnc1)c1ccccc1Oc1ccccc1, the AC50 was 1.26 µM [rising, partial curve, poor fit].
With CCOc1ccc(N(CC(=O)N2CCc3ccccc32)S(=O)(=O)c2c(C)noc2C)cc1 the AC50 was 10 µM [falling, partial curve].
For O=c1cnc2cnc(Nc3ccccc3)nc2n1Cc1cccs1, the AC50 was 2.51 µM [falling, partial curve].
In the case of COc1cc(/C=c2\s/c(=C(/C#N)C(=O)N3CCCC3)n(-c3ccccc3)c2=O)ccc1O, the AC50 is reported as 2.51 µM [rising, full curve, poor fit].
In the case of CN1CCN(c2ncc3nc(-c4ccc(Cl)cc4)c(=O)n(Cc4cccs4)c3n2)CC1, the AC50 is reported as 1 µM [rising, full curve].
For CCc1c(C(=O)Nc2ccc(OC)cc2)[nH]c(C)c1C(C)=O, the AC50 was 2.51 µM [falling, single point].
In the case of CCC(C)(C(=O)NC1CCCCC1)N(C(=O)c1cnccn1)c1c(C)n(C)n(-c2ccccc2)c1=O (stereo not drawn), the AC50 is reported as 0.00631 µM [falling, full curve, poor fit].
For COc1ccc(C2CC(=O)N3C(=C2C#N)SCC3(O)c2ccccc2)cc1 (stereo not drawn), the AC50 was 10 µM [rising, single point].
With CC(C)CCn1cnc2c(c1=O)c1nc3ccccc3nc1n2Cc1ccc2c(c1)OCO2 the AC50 was 0.631 µM [rising, full curve, poor fit].
For OC(COCc1ccccc1)CN1CCN(c2ccccc2)CC1 (stereo not drawn), the AC50 was 5.01 µM [falling, single point].
For C/C=C/Cn1c(Br)nc2c1c(=O)[nH]c(=O)n2C, the AC50 was 20 µM [rising, single point].
In the case of Cc1ccc(NC(=O)c2cc(-c3cccc(O)c3)on2)cc1C, the AC50 is reported as 12.6 µM [falling, single point].
With COc1ccc(OC)c(-c2[nH]nc3c2C(c2ccco2)C(C#N)=C(N)O3)c1 (stereo not drawn) the AC50 was 5.01 µM [falling, partial curve].
For Cc1ccc(C)n1-c1ccc(-c2nnc3n2CCCCC3)s1, the AC50 was 5.01 µM [falling, single point].
In the case of CCOc1ccc2nc(SCc3ccc(C(=O)OC)o3)[nH]c2c1, the AC50 is reported as 12.6 µM [rising, single point].
In the case of CC(=NCc1ccco1)C1=C(O)c2ccccc2C1=O, the AC50 is reported as 10 µM [rising, partial curve].
